This is one part of the list.

Amino acid sequences for entries named in this document (tags omitted). A change or cut given only in a name is not applied to a line headed by its entry.
UniProt Q6ZS81: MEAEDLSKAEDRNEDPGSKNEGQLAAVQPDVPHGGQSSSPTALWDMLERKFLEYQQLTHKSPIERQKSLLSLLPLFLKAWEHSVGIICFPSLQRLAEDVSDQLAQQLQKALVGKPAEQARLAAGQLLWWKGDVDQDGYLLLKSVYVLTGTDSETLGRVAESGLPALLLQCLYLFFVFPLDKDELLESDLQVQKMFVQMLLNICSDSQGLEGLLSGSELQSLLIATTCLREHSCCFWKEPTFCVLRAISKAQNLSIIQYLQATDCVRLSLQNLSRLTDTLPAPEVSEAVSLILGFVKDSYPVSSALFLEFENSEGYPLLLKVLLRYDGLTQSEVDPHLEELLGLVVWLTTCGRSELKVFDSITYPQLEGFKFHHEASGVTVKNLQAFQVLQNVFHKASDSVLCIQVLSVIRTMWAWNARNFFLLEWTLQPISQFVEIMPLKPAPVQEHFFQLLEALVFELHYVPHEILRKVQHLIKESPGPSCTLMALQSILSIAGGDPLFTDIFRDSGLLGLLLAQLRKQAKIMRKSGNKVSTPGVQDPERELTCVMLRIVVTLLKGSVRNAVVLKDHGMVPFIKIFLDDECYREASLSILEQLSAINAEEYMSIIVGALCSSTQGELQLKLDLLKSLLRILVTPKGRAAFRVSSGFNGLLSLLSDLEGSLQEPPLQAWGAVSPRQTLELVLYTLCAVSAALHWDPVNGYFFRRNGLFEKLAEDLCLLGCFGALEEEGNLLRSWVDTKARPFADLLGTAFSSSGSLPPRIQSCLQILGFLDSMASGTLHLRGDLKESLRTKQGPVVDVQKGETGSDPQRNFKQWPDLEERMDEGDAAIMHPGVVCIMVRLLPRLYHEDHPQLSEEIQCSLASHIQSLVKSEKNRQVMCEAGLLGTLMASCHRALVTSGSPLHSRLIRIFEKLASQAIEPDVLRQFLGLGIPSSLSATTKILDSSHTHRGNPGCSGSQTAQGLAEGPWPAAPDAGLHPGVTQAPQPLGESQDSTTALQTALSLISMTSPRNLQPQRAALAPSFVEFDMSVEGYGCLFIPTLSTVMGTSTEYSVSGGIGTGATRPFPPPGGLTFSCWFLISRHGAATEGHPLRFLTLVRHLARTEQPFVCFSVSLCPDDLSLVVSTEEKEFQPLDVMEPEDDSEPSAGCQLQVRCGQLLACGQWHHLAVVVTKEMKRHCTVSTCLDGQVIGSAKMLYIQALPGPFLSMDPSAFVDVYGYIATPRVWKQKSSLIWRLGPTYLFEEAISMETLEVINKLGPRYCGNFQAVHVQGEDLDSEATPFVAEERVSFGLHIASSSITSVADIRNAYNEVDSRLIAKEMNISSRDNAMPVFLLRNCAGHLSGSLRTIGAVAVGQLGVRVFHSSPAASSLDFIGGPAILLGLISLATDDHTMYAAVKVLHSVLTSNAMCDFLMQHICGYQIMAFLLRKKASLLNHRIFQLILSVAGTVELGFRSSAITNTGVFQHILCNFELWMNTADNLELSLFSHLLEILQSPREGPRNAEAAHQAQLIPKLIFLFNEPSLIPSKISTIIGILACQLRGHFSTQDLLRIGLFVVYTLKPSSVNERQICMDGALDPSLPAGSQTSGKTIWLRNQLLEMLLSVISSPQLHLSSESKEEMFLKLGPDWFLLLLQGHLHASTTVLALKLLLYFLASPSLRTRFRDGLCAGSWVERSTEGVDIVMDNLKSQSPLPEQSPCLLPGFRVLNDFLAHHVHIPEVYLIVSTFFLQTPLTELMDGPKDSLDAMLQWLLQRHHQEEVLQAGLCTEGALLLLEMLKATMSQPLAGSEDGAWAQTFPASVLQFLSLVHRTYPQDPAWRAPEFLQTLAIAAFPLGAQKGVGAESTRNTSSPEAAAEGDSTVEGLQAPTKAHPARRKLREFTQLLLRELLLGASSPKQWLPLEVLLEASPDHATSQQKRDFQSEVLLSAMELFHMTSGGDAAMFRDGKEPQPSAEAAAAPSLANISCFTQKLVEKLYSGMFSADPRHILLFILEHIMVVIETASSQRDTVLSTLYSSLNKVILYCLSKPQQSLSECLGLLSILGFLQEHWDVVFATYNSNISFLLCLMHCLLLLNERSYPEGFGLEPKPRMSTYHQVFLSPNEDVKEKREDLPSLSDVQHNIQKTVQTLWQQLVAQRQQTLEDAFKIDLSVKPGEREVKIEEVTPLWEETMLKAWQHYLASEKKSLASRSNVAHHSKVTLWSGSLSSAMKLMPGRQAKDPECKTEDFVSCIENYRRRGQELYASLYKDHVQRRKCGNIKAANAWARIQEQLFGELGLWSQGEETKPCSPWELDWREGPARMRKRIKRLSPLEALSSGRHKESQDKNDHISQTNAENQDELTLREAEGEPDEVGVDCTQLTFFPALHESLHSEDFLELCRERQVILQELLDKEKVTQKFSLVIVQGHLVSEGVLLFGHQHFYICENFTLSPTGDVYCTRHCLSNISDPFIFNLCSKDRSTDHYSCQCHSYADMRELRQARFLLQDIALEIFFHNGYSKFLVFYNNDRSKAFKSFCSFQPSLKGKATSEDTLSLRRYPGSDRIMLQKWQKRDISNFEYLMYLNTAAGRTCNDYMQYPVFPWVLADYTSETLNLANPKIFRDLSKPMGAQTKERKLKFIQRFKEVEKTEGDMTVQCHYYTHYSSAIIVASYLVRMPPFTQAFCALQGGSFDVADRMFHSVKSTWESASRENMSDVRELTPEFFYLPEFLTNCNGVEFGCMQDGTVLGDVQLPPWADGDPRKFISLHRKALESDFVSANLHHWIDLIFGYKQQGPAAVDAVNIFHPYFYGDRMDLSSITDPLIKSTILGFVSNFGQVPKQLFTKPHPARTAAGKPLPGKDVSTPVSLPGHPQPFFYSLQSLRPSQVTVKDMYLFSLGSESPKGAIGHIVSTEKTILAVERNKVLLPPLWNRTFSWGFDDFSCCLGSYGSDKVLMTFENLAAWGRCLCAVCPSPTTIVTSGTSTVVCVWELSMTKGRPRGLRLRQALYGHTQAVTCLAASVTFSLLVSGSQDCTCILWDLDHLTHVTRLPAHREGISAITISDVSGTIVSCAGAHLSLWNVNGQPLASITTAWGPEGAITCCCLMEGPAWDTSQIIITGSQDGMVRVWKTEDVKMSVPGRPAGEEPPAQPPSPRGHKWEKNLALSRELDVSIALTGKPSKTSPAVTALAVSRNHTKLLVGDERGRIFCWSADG
UniProt Q8IWB7: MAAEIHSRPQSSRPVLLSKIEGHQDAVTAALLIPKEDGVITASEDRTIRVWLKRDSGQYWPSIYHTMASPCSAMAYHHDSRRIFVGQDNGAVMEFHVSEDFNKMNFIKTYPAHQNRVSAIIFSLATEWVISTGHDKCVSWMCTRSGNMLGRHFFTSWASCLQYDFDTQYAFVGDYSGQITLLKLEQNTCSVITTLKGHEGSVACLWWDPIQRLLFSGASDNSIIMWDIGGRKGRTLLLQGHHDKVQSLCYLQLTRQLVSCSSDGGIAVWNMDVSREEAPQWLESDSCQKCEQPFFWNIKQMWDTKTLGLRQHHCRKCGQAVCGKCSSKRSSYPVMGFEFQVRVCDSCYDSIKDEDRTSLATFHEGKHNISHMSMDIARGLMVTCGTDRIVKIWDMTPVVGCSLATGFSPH
UniProt O94967: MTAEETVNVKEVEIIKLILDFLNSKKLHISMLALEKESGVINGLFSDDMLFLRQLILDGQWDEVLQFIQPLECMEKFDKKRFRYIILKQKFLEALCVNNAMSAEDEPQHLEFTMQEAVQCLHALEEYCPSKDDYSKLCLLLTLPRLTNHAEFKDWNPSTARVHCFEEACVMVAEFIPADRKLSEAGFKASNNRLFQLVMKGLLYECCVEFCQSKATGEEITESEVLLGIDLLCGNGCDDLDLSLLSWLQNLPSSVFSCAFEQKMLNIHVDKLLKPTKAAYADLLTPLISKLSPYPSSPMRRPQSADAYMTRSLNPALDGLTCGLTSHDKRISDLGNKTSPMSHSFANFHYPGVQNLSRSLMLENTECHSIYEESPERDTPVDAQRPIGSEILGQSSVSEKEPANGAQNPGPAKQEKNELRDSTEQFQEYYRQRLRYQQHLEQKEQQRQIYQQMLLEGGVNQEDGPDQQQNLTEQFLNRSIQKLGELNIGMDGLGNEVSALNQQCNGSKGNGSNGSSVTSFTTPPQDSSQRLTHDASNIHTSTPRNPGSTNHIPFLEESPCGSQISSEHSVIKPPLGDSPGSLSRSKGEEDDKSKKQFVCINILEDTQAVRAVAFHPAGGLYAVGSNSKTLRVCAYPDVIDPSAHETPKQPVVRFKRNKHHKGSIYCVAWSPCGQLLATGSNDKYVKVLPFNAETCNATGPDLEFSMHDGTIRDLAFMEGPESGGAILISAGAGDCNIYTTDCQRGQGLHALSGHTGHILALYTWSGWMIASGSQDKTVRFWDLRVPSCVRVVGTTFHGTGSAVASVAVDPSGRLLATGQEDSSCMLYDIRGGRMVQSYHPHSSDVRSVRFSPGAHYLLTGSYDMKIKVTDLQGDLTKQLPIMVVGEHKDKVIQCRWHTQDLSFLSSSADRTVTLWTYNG
UniProt Q96MX6, whole entry, looked up: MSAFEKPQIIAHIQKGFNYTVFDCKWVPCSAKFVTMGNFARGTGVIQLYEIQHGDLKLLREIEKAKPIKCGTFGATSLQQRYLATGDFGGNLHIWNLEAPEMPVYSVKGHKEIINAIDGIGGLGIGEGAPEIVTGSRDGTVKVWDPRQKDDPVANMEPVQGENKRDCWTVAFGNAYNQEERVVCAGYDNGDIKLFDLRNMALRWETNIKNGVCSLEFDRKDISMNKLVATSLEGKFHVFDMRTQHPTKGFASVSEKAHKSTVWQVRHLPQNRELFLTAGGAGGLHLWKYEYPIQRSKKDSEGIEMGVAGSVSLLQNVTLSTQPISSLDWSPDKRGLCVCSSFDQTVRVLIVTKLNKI
UniProt Q9UNX4: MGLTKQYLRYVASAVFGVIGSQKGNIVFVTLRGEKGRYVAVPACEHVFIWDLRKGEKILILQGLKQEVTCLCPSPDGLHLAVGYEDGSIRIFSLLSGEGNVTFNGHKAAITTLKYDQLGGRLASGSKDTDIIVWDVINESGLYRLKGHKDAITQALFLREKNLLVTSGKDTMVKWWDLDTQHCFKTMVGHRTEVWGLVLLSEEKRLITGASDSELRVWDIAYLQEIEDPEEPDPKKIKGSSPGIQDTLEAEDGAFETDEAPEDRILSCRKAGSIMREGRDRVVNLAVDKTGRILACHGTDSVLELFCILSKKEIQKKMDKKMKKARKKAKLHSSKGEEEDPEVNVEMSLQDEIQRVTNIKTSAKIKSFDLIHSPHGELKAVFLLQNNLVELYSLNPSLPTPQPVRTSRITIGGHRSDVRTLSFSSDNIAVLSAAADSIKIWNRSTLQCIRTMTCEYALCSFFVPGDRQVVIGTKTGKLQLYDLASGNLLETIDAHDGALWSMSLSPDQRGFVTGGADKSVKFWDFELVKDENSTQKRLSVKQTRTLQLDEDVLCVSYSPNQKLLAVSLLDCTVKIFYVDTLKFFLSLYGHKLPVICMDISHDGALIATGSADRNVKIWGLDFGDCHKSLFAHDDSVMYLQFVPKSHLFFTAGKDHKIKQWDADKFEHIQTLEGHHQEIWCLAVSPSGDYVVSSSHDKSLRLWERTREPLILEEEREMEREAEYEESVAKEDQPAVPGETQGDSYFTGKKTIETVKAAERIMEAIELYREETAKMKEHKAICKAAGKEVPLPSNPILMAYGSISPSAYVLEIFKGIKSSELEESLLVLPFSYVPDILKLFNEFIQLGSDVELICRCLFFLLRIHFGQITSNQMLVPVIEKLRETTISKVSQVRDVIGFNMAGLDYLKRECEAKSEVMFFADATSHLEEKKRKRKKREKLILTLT
UniProt Q9H7D7: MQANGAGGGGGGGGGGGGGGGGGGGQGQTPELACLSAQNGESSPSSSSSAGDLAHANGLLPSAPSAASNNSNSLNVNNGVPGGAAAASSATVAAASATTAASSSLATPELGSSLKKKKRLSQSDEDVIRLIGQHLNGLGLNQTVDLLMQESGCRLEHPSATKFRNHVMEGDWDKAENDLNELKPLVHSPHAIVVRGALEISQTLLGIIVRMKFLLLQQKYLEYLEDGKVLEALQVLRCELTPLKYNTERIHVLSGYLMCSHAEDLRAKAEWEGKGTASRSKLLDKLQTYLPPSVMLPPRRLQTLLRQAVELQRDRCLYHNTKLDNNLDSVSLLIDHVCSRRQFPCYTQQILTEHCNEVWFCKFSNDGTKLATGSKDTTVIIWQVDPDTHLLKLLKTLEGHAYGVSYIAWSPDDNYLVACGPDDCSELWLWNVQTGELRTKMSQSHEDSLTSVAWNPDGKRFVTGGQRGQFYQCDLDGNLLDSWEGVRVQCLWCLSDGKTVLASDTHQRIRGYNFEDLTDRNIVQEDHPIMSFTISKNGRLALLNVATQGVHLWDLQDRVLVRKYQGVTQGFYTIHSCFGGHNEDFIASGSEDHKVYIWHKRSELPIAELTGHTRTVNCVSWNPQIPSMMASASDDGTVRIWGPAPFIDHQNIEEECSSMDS

Compound in the assay: Cc1cc(ccc1-c1ccccc1)C(=O)N1CCCN(CC1)C(=O)CCl [compound 10]
Description: probe-labelled cysteine peptide fold change vs DMSO (competition) (log2 fold change); higher = less target engagement (more negative = stronger competition). Conditions: THP-1, incubation time: 4 h.
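Also: competitive profiling in live THP-1 cells: cysteine peptides tagged with an iodoacetamide desthiobiotin (IA-DTB) probe, intensity after compound treatment relative to DMSO-treated cells.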

Consider “WDFY4_Q6ZS81_2449_HCLSNISDPFIFNLCSK (UniProt Q6ZS81)”, for which the “probe-labelled cysteine peptide fold change” value runs as follows: (10 µM) -0.171; (50 µM) -0.206.

With “WDR82_Q6UXN9_287_HTGPITCLQFNPK (UniProt Q6UXN9)”, the “probe-labelled cysteine peptide fold change” value reads like this: (10 µM) -0.00419; (50 µM) -0.0934.

For the target “WDFY1_Q8IWB7_287_EEAPQWLESDSCQK (UniProt Q8IWB7)”, the “probe-labelled cysteine peptide fold change” value (10 µM) was 0.0438 and the “probe-labelled cysteine peptide fold change” value (50 µM) was determined as 0.08.

With “WDR25_Q64LD2_429_FTCPSLALHPR (UniProt Q64LD2)”, the “probe-labelled cysteine peptide fold change” value is -0.0138 (10 µM) and 0.0311 (50 µM).

With “WTAP_Q15007_90_EQEMQECTTQIQYLK (UniProt Q15007)”, the “probe-labelled cysteine peptide fold change” value was 0.0871 (10 µM) and -0.102 (50 µM).

Take “WDR7_Q9Y4E6_469_VTCLLYPHQVSAR (UniProt Q9Y4E6)”: the “probe-labelled cysteine peptide fold change” value by setting is: (10 µM) 0.00834; (50 µM) -0.0295.

Take “WDFY3_Q8IZQ1_896_NQQVMCEAGLHAR (UniProt Q8IZQ1)”: the “probe-labelled cysteine peptide fold change” value by setting is: (10 µM) 0.129; (50 µM) 0.165.

“XPNPEP1_Q9NQW7_48_NSEYVTEPIQAYIIPSGDAHQSEYIAPCDCRR (UniProt Q9NQW7)”: the “probe-labelled cysteine peptide fold change” value is -0.104 (10 µM) and 0.333 (50 µM).

With “WDFY3_Q8IZQ1_2094_SQGLSLDAVYHCLNR (UniProt Q8IZQ1)”, the “probe-labelled cysteine peptide fold change” value (10 µM) turned out to be 0.0981 and the “probe-labelled cysteine peptide fold change” value (50 µM) was -0.178.

Regarding “WDR47_O94967_322_SLNPALDGLTCGLTSHDK (UniProt O94967)”, the “probe-labelled cysteine peptide fold change” value by setting is: (10 µM) -0.159; (50 µM) -0.017.

Turning to “WDR12_Q9GZL7_185_ALHCCR (UniProt Q9GZL7)”, the “probe-labelled cysteine peptide fold change” value is, setting by setting: (10 µM) 0.0695; (50 µM) -0.0462.

On to “WDR92_Q96MX6_213_NGVCSLEFDRK (UniProt Q96MX6)”, for which the “probe-labelled cysteine peptide fold change” value (10 µM) was 0.146 and the “probe-labelled cysteine peptide fold change” value (50 µM) came out at 0.0597.

“WDR6_Q9NNW5_1096_LGHGEPTFMNSTVFHVPDVADMDCWPVSPEFGHR (UniProt Q9NNW5)”: the “probe-labelled cysteine peptide fold change” value reads like this: (10 µM) 0.172; (50 µM) 0.345.

Regarding “WDR62_O43379_256_SGILGELHNNIFCGVACGR (UniProt O43379)”, the “probe-labelled cysteine peptide fold change” value was -0.111 (10 µM) and 0.518 (50 µM).

With “WDFY1_Q8IWB7_317_CGQAVCGK (UniProt Q8IWB7)”, the “probe-labelled cysteine peptide fold change” value (10 µM) came to 0.00459 and the “probe-labelled cysteine peptide fold change” value (50 µM) is -0.207.

“WDR41_Q9HAD4_131_ISCFQSTVK (UniProt Q9HAD4)”: the “probe-labelled cysteine peptide fold change” value by setting is: (10 µM) -0.0174; (50 µM) -0.338.

Regarding “WIPI2_Q9Y4P8-2_401_AYTDDLGAVGGACLEDEASALRLDEDSEHPPMILR (UniProt Q9Y4P8)”, the “probe-labelled cysteine peptide fold change” value (10 µM) is -0.404 and the “probe-labelled cysteine peptide fold change” value (50 µM) is -0.485.

For “WRN_Q14191_1367_HGPDSGLQPSCDVNK (UniProt Q14191)”, the “probe-labelled cysteine peptide fold change” value (10 µM) is -0.126 and the “probe-labelled cysteine peptide fold change” value (50 µM) is -0.11.

Regarding WDR1_O75083_194_FVNCVR (UniProt O75083), the “probe-labelled cysteine peptide fold change” value (10 µM) is 0.0979 and the “probe-labelled cysteine peptide fold change” value (50 µM) was -0.0458.

“WDR91_A4D1P6_512_ILSLACSPNGASFVCSAAAPSLTSQVDFSAPDIGSK (UniProt A4D1P6)”: the “probe-labelled cysteine peptide fold change” value (10 µM) is 0.0949 and the “probe-labelled cysteine peptide fold change” value (50 µM) came to 0.122.

For “WDCP_Q9H6R7_472_LIESLSPDFCHQNK (UniProt Q9H6R7)”, the “probe-labelled cysteine peptide fold change” value (10 µM) was -0.22 and the “probe-labelled cysteine peptide fold change” value (50 µM) was -0.82.

Regarding “WDR81_Q562E7_130_LSYPLGGGLPFEDGSCGPETLTR (UniProt Q562E7)”, the “probe-labelled cysteine peptide fold change” value reads like this: (10 µM) -0.0271; (50 µM) -0.117.

Take “WDFY4_Q6ZS81_858_LYHEDHPQLSEEIQCSLASHIQSLVK (UniProt Q6ZS81)”: the “probe-labelled cysteine peptide fold change” value is, setting by setting: (10 µM) -0.129; (50 µM) -0.17.

As to “WDR3_Q9UNX4_296_ILACHGTDSVLELFCILSK (UniProt Q9UNX4)”, the “probe-labelled cysteine peptide fold change” value was -0.000721 (10 µM) and 0.0273 (50 µM).

As to “WDR3_Q9UNX4_625_IWGLDFGDCHK (UniProt Q9UNX4)”, the “probe-labelled cysteine peptide fold change” value runs as follows: (10 µM) 0.0263; (50 µM) 0.146.

For the target “WDFY3_Q8IZQ1_3027_EPVGQIVCTDK (UniProt Q8IZQ1)”, the “probe-labelled cysteine peptide fold change” value runs as follows: (10 µM) -0.225; (50 µM) -0.00578.

As to “WDR6_Q9NNW5_577_QGVTSVTCHGGYVYTTGR (UniProt Q9NNW5)”, the “probe-labelled cysteine peptide fold change” value reads like this: (10 µM) -0.105; (50 µM) -0.0538.

Take “WDYHV1_Q96HA8_50_NHDQYPLEECYAVFISNER (UniProt Q96HA8)”: the “probe-labelled cysteine peptide fold change” value came out at 0.23 (10 µM) and 0.165 (50 µM).

“WDR43_Q15061_307_DGQVHLFEHILNGYCK (UniProt Q15061)”: the “probe-labelled cysteine peptide fold change” value (10 µM) is 0.00548 and the “probe-labelled cysteine peptide fold change” value (50 µM) was -0.2.

In the case of “WDR92_Q96MX6_337+339_GLCVCSSFDQTVR (UniProt Q96MX6)”, the “probe-labelled cysteine peptide fold change” value by setting is: (10 µM) -0.136; (50 µM) -0.244.

For the target “WDR81_Q562E7_215_GSPACPSLLR (UniProt Q562E7)”, the “probe-labelled cysteine peptide fold change” value (10 µM) was -0.185 and the “probe-labelled cysteine peptide fold change” value (50 µM) is -0.529.

As to “WDR26_Q9H7D7_493_VQCLWCLSDGK (UniProt Q9H7D7)”, the “probe-labelled cysteine peptide fold change” value (10 µM) turned out to be 0.104 and the “probe-labelled cysteine peptide fold change” value (50 µM) is -0.0773.

As for “WDHD1_O75717_773_MLALSCK (UniProt O75717)”, the “probe-labelled cysteine peptide fold change” value runs as follows: (10 µM) 0.122; (50 µM) -0.0756.

As for “XPO1_O14980_34_LDINLLDNVVNCLYHGEGAQQR (UniProt O14980)”, the “probe-labelled cysteine peptide fold change” value is 0.06 (10 µM) and 0.0188 (50 µM).

Consider “WDFY1_Q8IWB7_290_CEQPFFWNIK (UniProt Q8IWB7)”, for which the “probe-labelled cysteine peptide fold change” value by setting is: (10 µM) -0.0485; (50 µM) -0.104.

For the target “WDR47_O94967_672_GSIYCVAWSPCGQLLATGSNDK (UniProt O94967)”, the “probe-labelled cysteine peptide fold change” value is -0.439 (10 µM) and -1.25 (50 µM).

Regarding “WDR59_Q6PJI9_26_DSQATAMSVDCLGQHAVLSGR (UniProt Q6PJI9)”, the “probe-labelled cysteine peptide fold change” value runs as follows: (10 µM) -0.0263; (50 µM) 0.187.

Consider “WDR26_Q9H7D7_316_CLYHNTK (UniProt Q9H7D7)”, for which the “probe-labelled cysteine peptide fold change” value by setting is: (10 µM) 0.135; (50 µM) -0.0391.

Regarding “WDR6_Q9NNW5_981_LGTPSLTLQAHSCGINSLHTLPTR (UniProt Q9NNW5)”, the “probe-labelled cysteine peptide fold change” value is, setting by setting: (10 µM) 0.0732; (50 µM) 0.149.

The record behind these values is the supplement of paper PMC12067093, “Discovery and optimisation of a covalent ligand for TRIM25 and its application to targeted protein ubiquitination” (Chemical Science, 2025).
